Measured values reported in patent US9849151B2, “Salacia compositions, methods of treatment by their administration, and methods of their preparation” (priority 2013, dated 2017).
Values after ≈ are worked out from the molar mass of the structure shown. For at least one compound, name, drawing or mass did not settle the structure.

Biological target: mammalian α-glucosidase extracted from rat intestinal acetone powder
Assay: Alpha glucosidase assay (PNPG, colorimetric kinetic assay)
Type: biochemical

C[C@H]1O[C@H](O[C@H]2[C@H](O)[C@@H](O)[C@@H](O[C@H]3[C@H](O)[C@@H](O)C(O)O[C@@H]3CO)O[C@@H]2CO)[C@H](O)[C@@H](O)[C@@H]1N[C@H]1C=C(CO)[C@@H](O)[C@H](O)[C@H]1O (stereo partly shown) [acarbose]
IC50 α-glucosidase: 19 µg/mL (≈ 29.4 µM)
